US8193235B2, “Compositions and methods for establishing and maintaining stem cells in an undifferentiated state” (University of Kansas, priority 2009, dated 2012)
For at least one compound, name, drawing or mass did not settle the structure.

Columns and labels:
[1] = tested on: E14 ES cells; assay: ES cell culture in the absence of LIF (undifferentiated state, marker expression); format: cell-based; conditions: mouse ES cells, without LIF
Protocol: (§1) E14 ES Cell Cultures. Cells were grown in ES-IMDM media (Lonza, Walkersville, Md.) in a feeder-free condition. ES-IMDM was supplemented with 15% serum, 10^5 U/100 ml of LIF (ESGRO, Millipore, Calif.) and 0.0124% monothioglycerol (MTG; Sigma Aldrich). Cells were grown for 3-5 days with change of medium every day. For inducing differentiation in monolayer culture and to determine the effect of Gö6983 in preventing differentiation, E14 cells were cultured on gelatin-coated plastics for 8 days without LIF. Details of experiments performed at clonal-density are described herein. To maintain E14 cells with Gö6983, serum supplemented ES-IMDM was used in the presence of 5 μM Gö6983 and was passed after every 3-5 days. […]
Quantitative RT-PCR Analysis. […] Relative expression levels were determined from a standard curve of serial dilutions of proliferating ES cell cDNA samples and were normalized to the expression of glyceraldehyde-3-phosphate dehydrogenase (GAPDH). […]
Immunostaining. […] Images were captured using a LEICA fluorescence microscope.

[2] = tested on: E14 ES cells; assay: ES cell differentiation on collagen IV and with retinoic acid; format: cell-based, mouse; conditions: absence of LIF
Text: ES Cell Differentiation on Collagen-IV and With Retinoic Acid. To differentiate ES cells in monolayer culture on collagen IV, around 3×10^4 cells per well were transferred to collagen IV-coated 6-well plates (BD Biosciences, Franklin Lakes, N.J.) cultured for 5 days in ES differentiation medium containing DMEM (Invitrogen), 15% FBS (selected for endothelial differentiation, Stem Cell Technologies, Vancouver, BC), sodium pyruvate and L-glutamine with or without LIF and Gö6983, and were recovered by cell dissociation buffer (BD Biosciences, Franklin Lakes, N.J.). For culturing multiple passages with Gö6983 on collagen-IV, the recovered cells were again plated at a density of ˜3×10^4 cells per well and cultured again for 5 days. […] For RA-induced differentiation on monolayer culture, ES cells were treated with all-trans-retinoic acid (Sigma, St. Louis, Mo.) in ethanol at a concentration of 1 μM with or without LIF and Gö6983 for 6 days followed by study of expression of pluripotency markers (by immunofluorescence or western blot or RT-PCR analysis).

[3] = tested on: mESCs; assay: Gö6983-mediated inhibition of mESC differentiation in presence of pathway inhibitors; format: cell-based, mouse; conditions: added to Gö6983 culture
Protocol: Inhibitors. Gö6983 was purchased from three different companies (Sigma, St. Louis, Mo.; EMD Chemicals Inc.; and Tocris Biosciences) for validation. In all experiments except the concentration profile, Gö6983 was used at 5 μM final concentration. […] Rottlerin (0.1-5 μM), and RO-318425 (0.1-5 μM) were purchased from EMD Chemicals. Jak Inhibitor I (10 μM), PD0325901 (1 μM) and AKT inhibitor IX (10 μM) were from Calbiochem and CHIR99021 (3 μM) was purchased from Stemgent.
as §1

[4] = tested on: PKC β; conditions: X = isoform inhibited; superscript 1 PKC β1, 2 PKC β2; cited from earlier work

Row | SMILES | ES cell differentiation in the absence of LIF [1] | differentiation of ES cells on collagen IV [2] | effect of added inhibitor on Gö6983-mediated inhibition of mESC differentiation / maintenance of self-renewal [3] | Isoform Specificity β [4]
1 | O=c1cc(N2CCOCC2)oc2c(-c3ccccc3)cccc12 [LY294002] | unable to prevent mESC differentiation | failed to block differentiation | did not prevent | 
2 | Cn1cc(C2=C(c3cn(CCCSC(=N)N)c4ccccc34)C(=O)NC2=O)c2ccccc21 [Ro-31-8220] |  |  |  | X^1, 2
3 | Cn1cc(C2=C(c3c4n(c5ccccc35)CCC(CN)C4)C(=O)NC2=O)c2ccccc21 (centres unmarked) [Ro-31-8425] |  |  |  | X^1, 2
